Measured values taken from patent US20240018252A1.
These are yes or no findings as the source states them, for the method shown. Some binding calls cover weakened binding; strength is not graded here.

Amino acid sequences for entries named in this document (tags omitted). A change or cut given only in a name is not applied to a line headed by its entry.
UniProt Q02223: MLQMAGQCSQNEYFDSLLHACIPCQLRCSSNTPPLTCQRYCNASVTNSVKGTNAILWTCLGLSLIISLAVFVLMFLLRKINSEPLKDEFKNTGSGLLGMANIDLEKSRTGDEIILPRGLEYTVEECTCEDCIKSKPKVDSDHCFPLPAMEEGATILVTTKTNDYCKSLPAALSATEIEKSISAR

Target: BCMA on BCMA-expressing tumor cells (KMS12BM, L363, MM1S and KMS12PE) (human) (UniProt Q02223)
Assay: flow cytometry on KMS12BM, L363, MM1S and KMS12PE cells, 0.5 ug antibody, Alexa Fluor 647 anti-mouse IgG; members named in paragraph 369

B1: Combo_Rd4_0.6 nM_C29 expressed in mouse IgG2a (antibody, V domains shown)
VH: EVQLLESGGGLVQPGGSLRLSCAASGFTFSSYPMSWVRQAPGKGLEWVSAIGGSGGSLPYADSVKGRFTISRDNSKNTLYLQMNSLRAEDTAVYYCARYWPMDIWGQGTLVTVSS
VL: EIVLTQSPGTLSLSPGERATLSCRASQSVSSSYLAWYQQKPGQAPRLLMYDASIRATGIPDRFSGSGSGTDFTLTISRLEPEDFAVYYCQQYQSWPLTFGQGTKVEIK
- binding: binds
